The values below come from the supplement of paper PMC12889115.

Molecules are shown by their SMILES. Some of the results follow. Values are raw readings; no control value is given beside them.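 Primary screen: polymyxin B was added at a level permeabilizing Salmonella outer membranes while sparing inner membranes. DMSO wells, both with and without polymyxin B, established maximum growth. Plate-to-plate variation meant each plate was ranked on its own, and the lowest-OD600 compounds were selected as hits.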

This assay concerns Salmonella enterica serovar Typhimurium SL1344. Kind of assay: bacterial growth OD600 after 18 h with compound and polymyxin B; higher = more bacterial growth (less inhibition). Particulars: 50 µM, Mueller-Hinton broth.

Regarding `O=C(NCC1CC1)C1CCCN(C2CCN(c3nc4ccccc4o3)CC2)C1` (stereo not given), for the setting “polymyxin B 0.75 µg/mL”, the “bacterial growth OD600” value was 0.774.

For `O=C1NCCCC[C@@H]1Nc1ccc(-c2nc(-c3cccc(Cl)c3)no2)cn1`, the “bacterial growth OD600” value (polymyxin B 0.75 µg/mL) came to 0.007.

With `CCOC(=O)N1CCN(C(=O)c2ccc(N3CCC(NCC(C)C)CC3)cc2)CC1`, the “bacterial growth OD600” value (polymyxin B 0.75 µg/mL) is 0.846.

Regarding `CCN1CCN(C2(C(=O)N(C)CCc3c(C)n[nH]c3C)Cc3ccccc3C2)CC1`, under “polymyxin B 0.75 µg/mL”, the “bacterial growth OD600” value turned out to be 0.919.

`Cc1nnc(CCC(=O)NCc2cccnc2Oc2ccc(F)c(F)c2)[nH]1`: the “bacterial growth OD600” value (polymyxin B 0.75 µg/mL) was found to be 0.781.

Take `C=CCN(CC=C)C(=O)C1CC(=O)c2sc(NC(=O)C3CCC3)nc2C1` (stereo not given): the “bacterial growth OD600” value (polymyxin B 0.75 µg/mL) was 0.827.

Consider `Cc1cnc(C)c(-c2ccc3c(c2)CC(CNC(=O)CCC2CCCCC2)O3)n1` (stereo not given), for which the “bacterial growth OD600” value (polymyxin B 0.75 µg/mL) was 0.814.

Take `O=C(Cc1ccc(N2CCC(NCCCc3ccncc3)CC2)cc1)NCCc1cccc(F)c1`: the “bacterial growth OD600” value (polymyxin B 0.75 µg/mL) worked out at 0.764.

`Cc1cc(C)n(Cc2cc(C(=O)N(C)C(C)c3cccs3)n[nH]2)n1` (stereo not given): the “bacterial growth OD600” value (polymyxin B 1 µg/mL) came to 1.02.

As to `CCOc1ccc2nc(N3CCCC(C(=O)N4CCC(C(=O)N5CCOCC5)CC4)C3)nc(C)c2c1` (stereo not given), the “bacterial growth OD600” value (polymyxin B 0.75 µg/mL) was 0.755.

Take `COc1ccc(C2CCN(Cc3ccoc3)c3ccccc3S2)cc1C` (stereo not given): the “bacterial growth OD600” value (polymyxin B 0.75 µg/mL) is 0.559.

Regarding `O=C(CCn1cccn1)NCc1cccnc1Oc1ccccc1F`, the “bacterial growth OD600” value (polymyxin B 1 µg/mL) worked out at 1.02.

Take `CSCCC(=O)N1CCC(C2(c3cccnc3)NC(=O)N(CCc3cccs3)C2=O)CC1` (stereo not given): the “bacterial growth OD600” value (polymyxin B 0.75 µg/mL) was found to be 0.881.

Take `CCC(NC(=O)CCc1nnc(Cc2cc(OC)ccc2OC)o1)c1ccncc1` (stereo not given): for the setting “polymyxin B 1 µg/mL”, the “bacterial growth OD600” value turned out to be 0.884.

In the case of `Cc1cccc(C(=O)N2CCCC(Nc3ccc(C(C)C)cc3)C2)n1` (stereo not given), for the setting “polymyxin B 1 µg/mL”, the “bacterial growth OD600” value was 0.666.

`CC(=O)N(Cc1cccnc1)CC1CCN(Cc2ccccc2C)CC1`: under “polymyxin B 1 µg/mL”, the “bacterial growth OD600” value was determined as 1.09.

Consider `CC(C)N1CCC(N2CCC(C(=O)NCc3cccnc3)CC2)CC1`, for which the “bacterial growth OD600” value (polymyxin B 0.75 µg/mL) came to 0.774.

As to `CC(C)(C)CNCC1(O)CCCN(Cc2ccccc2F)C1=O` (stereo not given), under “polymyxin B 1 µg/mL”, the “bacterial growth OD600” value is 0.967.

As to `COC(=O)C1CCN(C(=O)CC2(c3ccc(-c4ccccc4)cc3)CC(=O)N(C)C2=O)CC1` (stereo not given), the “bacterial growth OD600” value (polymyxin B 0.75 µg/mL) worked out at 0.72.

As for `CCc1ccc2nc(C)cc(C(=O)N3CCC(CCC(=O)NC4CC4)CC3)c2c1`, where the note is “polymyxin B 1 µg/mL”, the “bacterial growth OD600” value is 1.02.
